According to the supplement of paper PMC10735217:
Structures can show the parent of a compound that is named as a salt. This is one part of the list. Single values are uncertain here, since repeats match poorly.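 The human kidney-derived cells carry a stably integrated construct of eight TEAD-binding elements driving luciferase, read by luminescence in a drug-repurposing library screen. A compound counts as a hit when its signal is more than five robust Z scores above the plate mean.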

Test system: HEK293A TEAD-LUC reporter
Assay: TEAD-luciferase reporter activity (YAP activation), robust Z score vs plate; higher = stronger YAP/TEAD activation
Conditions: 24 h

SMILES	TEAD-luciferase reporter activity (compound concentration: 200 nM)	TEAD-luciferase reporter activity (compound concentration: 2 uM)	TEAD-luciferase reporter activity (compound concentration: 10 uM)
CN(C)CCNC(=O)c1cccc2cc3ccccc3nc12	inactive: 1.35	inactive: 3.46	inactive: 2.89
CCOC(=O)O[C@]1(C(=O)OCCl)CC[C@H]2[C@@H]3CCC4=CC(=O)C=C[C@]4(C)[C@H]3[C@@H](O)C[C@@]21C	inactive: -0.893		inactive: 2.23
CCOC(=O)O[C@]1(C(=O)OCCl)CC[C@H]2[C@@H]3CCC4=CC(=O)C=C[C@]4(C)[C@H]3[C@@H](O)C[C@@]21C [Loteprednol etabonate]		inactive: -0.59	
CN1CCN(CCCN2c3ccccc3Sc3ccc(S(=O)(=O)N(C)C)cc32)CC1	inactive: 0.218	inactive: 1.1	inactive: -0.67
CN[C@@H]1[C@H](O)[C@H](NC)[C@H]2O[C@@]3(O)C(=O)C[C@@H](C)O[C@H]3O[C@@H]2[C@H]1O [Spectinomycin hydrochloride]		inactive: -1.93	
CN[C@@H]1[C@H](O)[C@H](NC)[C@H]2O[C@@]3(O)C(=O)C[C@@H](C)O[C@H]3O[C@@H]2[C@H]1O	inactive: -1.33		inactive: 1.9
O=c1[nH]c2cc(-n3ccnc3)c([N+](=O)[O-])cc2[nH]c1=O	inactive: -1.71	inactive: -0.39	inactive: 0.656
Cc1c(O)ccc2c1OCC(c1ccc(O)cc1)C2c1ccc(O)cc1 (centres undefined)	inactive: 0.647	inactive: 2.07	inactive: 0.734
CCC[C@]1(CC(=O)OCC)OCCc2c1[nH]c1c(C)ccc(C#N)c21	inactive: 1.69	inactive: -0.176	inactive: 2.58
CN1C[C@H]2C[C@@H]1CN2c1cc2c(cc1F)c(=O)c(C(=O)O)cn2C1CC1 [Danofloxacin mesylate]	inactive: -1.56	inactive: 1.9	inactive: -0.533
CC1=C(/C=C/C(C)=C/C=C/C(C)=C/C=C/C=C(C)/C=C/C=C(C)/C=C/C2=C(C)C[C@@H](O)CC2(C)C)C(C)(C)C[C@H](O)C1	inactive: -0.705	inactive: -1.28	inactive: 0.411
Fc1ccc(-c2ccc(CN3CCN(c4cccc5ccoc45)CC3)[nH]2)cc1	inactive: 2.39	inactive: 0.358	inactive: 3.3
O=C(O)CNC(=O)CNC(=O)CS	inactive: -1.16	inactive: -0.957	inactive: 0.0359
O=c1[nH]c2ccccc2c2cc(CO)nn12 [pirquinozol]	inactive: -0.447	inactive: -1.18	inactive: -0.233
COc1cc(-n2cnc3cc(-c4ccc(Cl)cc4)sc3c2=O)ccc1OCCN1CCCC1	inactive: -0.666	inactive: -0.991	inactive: 0.873
O=P(O)(O)[C@@H](CCCc1cccc(Oc2ccccc2)c1)S(=O)(=O)O	inactive: 0.338	inactive: -1.57	inactive: -2.31
O=C(O)C1Cc2cc3c(-c4ccccc4F)noc3c(Cl)c2O1 (centres undefined)	inactive: -1.25	inactive: 1.36	inactive: -1.13
CCN1C(=S)N(c2ccc(N3CCN(c4ccc(O)cc4)CC3)cc2)C(=O)C1(C)C	inactive: -2.08	inactive: -0.783	inactive: -0.744
CCCCN(CCCC)C(=O)OCC[N+](C)(C)CC	inactive: -1.36	inactive: -0.116	inactive: 2.58
NC(CC1c2ccccc2Sc2ccccc21)(C(=O)O)C12C3C4C1C1C2C3C41C(=O)O (centres undefined)	inactive: -0.92	inactive: 3.66	inactive: 1.14

SMILES	TEAD-luciferase reporter activity (compound concentration: 200 nM)	TEAD-luciferase reporter activity (compound concentration: 2 uM)	TEAD-luciferase reporter activity (compound concentration: 10 uM)
NC(=O)C1(N2CCCCC2)CCN(CCCN2c3ccccc3CCc3ccccc32)CC1	inactive: -0.76	inactive: 0.401	inactive: -1.3
CN1c2ccccc2CNc2cncnc21	inactive: -0.117	inactive: -1.1	inactive: -0.856
CC1(C)CCCN(CCCOc2ccc(C3CCN(C(=O)c4ccc(CCC(=O)O)c5ccccc45)CC3)cc2)C1	inactive: -2.09	inactive: -1.06	inactive: 0.0206
CC(=O)OCC(=O)Nc1cc(C#N)cc(NC(=O)COC(C)=O)c1Cl [Acreozast]	inactive: 2.24	inactive: -0.802	inactive: -1.29
NS(=O)(=O)c1cc2c(cc1Cl)NC(C(Cl)Cl)NS2(=O)=O (centres undefined) [Trichloromethiazide]	inactive: -2.05		inactive: 0.115
NS(=O)(=O)c1cc2c(cc1Cl)NC(C(Cl)Cl)NS2(=O)=O (centres undefined) [Trichlormethiazide]		inactive: -1.51	
CCCC(=O)Nc1ncnc2c1ncn2[C@@H]1O[C@@H]2COP(=O)(O)O[C@H]2[C@H]1OC(=O)CCC [bucladesine]	inactive: -2.23	inactive: -0.864	inactive: -1.85
CC1CCc2c(N3CCC(OC(=O)[C@H](C)N)CC3)c(F)cc3c(=O)c(C(=O)O)cn1c23 (some centres undefined)	inactive: -1.11	inactive: -0.619	inactive: -0.337
O=C1/C(=C/c2ccccc2)C(NC2CCCCC2)c2ccccc21 (centres undefined)	inactive: 0.0312	inactive: -0.429	inactive: -0.75
COc1nccnc1N(C(C)=O)S(=O)(=O)c1ccc(N)cc1	inactive: 1.39	inactive: -0.603	inactive: -0.126
CCCCCCCCC(=O)N[C@H](CN1CCCC1)[C@H](O)c1ccc2c(c1)OCCO2	inactive: -2.12	inactive: -1.66	inactive: 0.683
C[C@@H](O)[C@H]1C(=O)N2C(C(=O)O)=C(S[C@@H]3CN[C@H](CNS(N)(=O)=O)C3)[C@H](C)[C@H]12 [Doripenem]		inactive: 2.33	
C[C@@H](O)[C@H]1C(=O)N2C(C(=O)O)=C(S[C@@H]3CN[C@H](CNS(N)(=O)=O)C3)[C@H](C)[C@H]12 [Doripenem Hydrate]	inactive: 0.142		inactive: 0.152
Cc1cc(C(=C2C=CC(=N)C=C2)c2ccc(N)c(C)c2)ccc1N	inactive: -0.887	inactive: 1.18	inactive: -0.567
COCCN(CCOC)c1nc(C)nc2c(-c3ccc(OC)cc3C)c(C)nn12	inactive: 0.226	inactive: -0.0597	inactive: 1.02
CCN(/N=C/c1ccc([N+](=O)[O-])o1)C(N)=O	inactive: -0.593	inactive: -1.25	inactive: -0.518
CC1(C)Oc2ccc(S(=O)(=O)c3ccccc3)cc2[C@@H](N2CCCC2=O)[C@@H]1O	inactive: 1.86	inactive: -1.05	inactive: -0.372
CCOC(=O)C(C#N)=C(c1ccccc1)c1ccccc1	inactive: 0.26	inactive: -0.975	inactive: -0.486
CNC1Cc2ccccc2N(C)c2ccccc21 (centres undefined)	inactive: -0.739	inactive: -0.236	inactive: 3.36
CC[C@]1(c2ccccc2)NC(=O)N(C)C1=O [(R)-(?)-Mephenytoin]		inactive: -0.49	

SMILES	TEAD-luciferase reporter activity (compound concentration: 200 nM)	TEAD-luciferase reporter activity (compound concentration: 2 uM)	TEAD-luciferase reporter activity (compound concentration: 10 uM)
CC[C@]1(c2ccccc2)NC(=O)N(C)C1=O [(R)-Mephenytoin]	inactive: -0.232		inactive: 0.0849
O=C(/C=C/c1ccc(O)c(O)c1)O[C@H](Cc1ccc(O)c(O)c1)C(=O)O [Rosmarinic acid]	inactive: -1.35	inactive: -0.308	inactive: 0.766
CC(=O)C(=Cc1ccc(S(C)(=O)=O)cc1)C(C)=O	inactive: 0.0939	inactive: -1.45	inactive: -0.907
C=C[C@@](C)(/C=C/c1ccc(O)cc1)CCC=C(C)C [Drupanol]	inactive: 0.454	inactive: -1.6	active: 6.39
CC(=O)C1=C(O)/C(=C(\C)Nc2ccc(O)c(N)c2)C(=O)OC1=O	inactive: 0.353	inactive: -0.99	inactive: -0.111
CC(CCc1ccc(I)cc1)CC(=O)O (centres undefined)	inactive: 0.909	inactive: -0.169	inactive: 1.88
NC(=O)c1nc(-c2ccc(F)cc2)c(CCN2CCC(=Cc3cccc(F)c3)CC2)s1	inactive: -0.117	inactive: -1.16	inactive: -1.24
O=C(Nc1nc(-c2ccccc2)cs1)OCC(Cl)(Cl)Cl [lotifazole]	inactive: -0.51	inactive: -1.57	inactive: 2.86
CCN(C[C@H]1COC(N)=N1)c1ccccc1	inactive: -0.917	inactive: -1.24	inactive: 0.41
CCCCC[C@H](O)/C=C/[C@@H]1c2cc(CCCCC(=O)[O-])n(-c3ccccc3)c2C[C@H]1O [Piriprost]	inactive: 0.321	inactive: -0.957	inactive: -0.931
Cc1cc(CCN2CCN(c3cccc(Cl)c3)CC2)n[nH]1 [mepiprazole]	inactive: 0.655	inactive: -1.05	inactive: -0.0327
CCN(CCNC(=O)Nc1ccccc1Br)c1cccc(C)c1	inactive: -2.72	inactive: -0.813	inactive: -1.32
N=C(N)N [Guanidine (HCL)]		inactive: -1.36	
N=C(N)N	inactive: -1.54		inactive: 0.127
N=C(N)N [Guanidine (hydrochloride)]		inactive: -1.38	
O=C1CN(/N=C/c2ncc(-c3ccc(Br)cc3)o2)C(=O)N1 [azumolene sodium]	inactive: -1.47	inactive: -2.58	inactive: -0.144
CC(C)(C)CC(C)(C)c1ccc(O)c(Cc2ccc(Cl)cc2Cl)c1 [clofoctol]	inactive: 0.166	inactive: -0.276	inactive: -1.49
COc1cc(CC2NCCc3cc(O)c(O)cc32)cc(OC)c1OC (centres undefined) [tretoquinol]	inactive: -2.03	inactive: -1.35	inactive: 0.865

A portion from further up, as a working copy:
SMILES	TEAD-luciferase reporter activity (compound concentration: 200 nM)	TEAD-luciferase reporter activity (compound concentration: 2 uM)	TEAD-luciferase reporter activity (compound concentration: 10 uM)
C=C[C@@](C)(/C=C/c1ccc(O)cc1)CCC=C(C)C [Drupanol]	inactive: 0.454	inactive: -1.6	active: 6.39
CC(=O)C1=C(O)/C(=C(\C)Nc2ccc(O)c(N)c2)C(=O)OC1=O	inactive: 0.353	inactive: -0.99	inactive: -0.111
CC(CCc1ccc(I)cc1)CC(=O)O (centres undefined)	inactive: 0.909	inactive: -0.169	inactive: 1.88
